Measurements taken from the supplement of paper PMC5355238.
Structures can show the parent of a compound that is named as a salt. The list shows a part of the results. Most values lie at the level of the controls, where differences are scatter.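 Reh, a human leukemia cell line, is read out by flow cytometry as the median γH2AX antibody signal in S-phase cells; the score counts standard deviations from the median difference of each paired plate set. Scores above 2.5 were candidate hits; scores below -2 mark compounds lowering MK1775-induced damage.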

Tested on: Reh
Experiment: Z' of S-phase gammaH2AX difference (drug + MK1775 minus drug alone) (Z-score); higher = stronger synergistic S-phase DNA damage with MK1775
Settings: MK1775 concentration 400 nM; first compound 10 µM; 4 h

SMILES | Z' of S-phase gammaH2AX difference (Z-score)
CC(C)(C)c1ccc(C(O)CCCN2CCC(C(O)(c3ccccc3)c3ccccc3)CC2)cc1 (stereo unspecified) [Terfenadine] + C=CCn1c(=O)c2cnc(Nc3ccc(N4CCN(C)CC4)cc3)nc2n1-c1cccc(C(C)(C)O)n1 [MK1775] | inactive: -0.893
N[C@@H](Cc1ccc(O)c(I)c1)C(=O)O [3-Iodo-L-tyrosine] + C=CCn1c(=O)c2cnc(Nc3ccc(N4CCN(C)CC4)cc3)nc2n1-c1cccc(C(C)(C)O)n1 [MK1775] | inactive: -0.0802
Nc1ccn([C@@H]2O[C@H](CO)[C@@H](O)[C@@H]2O)c(=O)n1 [Cytarabine] + C=CCn1c(=O)c2cnc(Nc3ccc(N4CCN(C)CC4)cc3)nc2n1-c1cccc(C(C)(C)O)n1 [MK1775] | inactive: -2.3
Nc1ccn([C@@H]2O[C@H](CO)[C@@H](O)[C@@H]2O)c(=O)n1 [Cytosine-1-beta-D-arabinofuranoside hydrochloride] + C=CCn1c(=O)c2cnc(Nc3ccc(N4CCN(C)CC4)cc3)nc2n1-c1cccc(C(C)(C)O)n1 [MK1775] | inactive: 1.99
Nc1ncnc2c1ncn2C1CCCO1 (stereo unspecified) + C=CCn1c(=O)c2cnc(Nc3ccc(N4CCN(C)CC4)cc3)nc2n1-c1cccc(C(C)(C)O)n1 [MK1775] | inactive: -1.57
Cc1[nH]c2ccccc2c1CCNCc1ccc(/C=C/C(=O)NO)cc1 [Panobinostat] + C=CCn1c(=O)c2cnc(Nc3ccc(N4CCN(C)CC4)cc3)nc2n1-c1cccc(C(C)(C)O)n1 [MK1775] | inactive: -4.58
CC(C)Cn1c(=O)n(C)c(=O)c2[nH]cnc21 [3-Isobutyl-1-methylxanthine] + C=CCn1c(=O)c2cnc(Nc3ccc(N4CCN(C)CC4)cc3)nc2n1-c1cccc(C(C)(C)O)n1 [MK1775] | inactive: -0.27
CCCCOc1cc(CC2CNC(=O)N2)ccc1OC (stereo unspecified) + C=CCn1c(=O)c2cnc(Nc3ccc(N4CCN(C)CC4)cc3)nc2n1-c1cccc(C(C)(C)O)n1 [MK1775] | inactive: -0.0134
Nc1ccc(C(=O)Nc2cccc(-c3nc(N4CCOCC4)c4oc5ncccc5c4n3)c2)cn1 + C=CCn1c(=O)c2cnc(Nc3ccc(N4CCN(C)CC4)cc3)nc2n1-c1cccc(C(C)(C)O)n1 [MK1775] | inactive: -0.431
CN(C)CCCN1c2ccccc2Sc2ccc(Cl)cc21 [Chlorpromazine hydrochloride] + C=CCn1c(=O)c2cnc(Nc3ccc(N4CCN(C)CC4)cc3)nc2n1-c1cccc(C(C)(C)O)n1 [MK1775] | inactive: 0.685
CC(Cc1ccc(O)c(O)c1)(NN)C(=O)O (stereo not drawn) [S-(-)-Carbidopa] + C=CCn1c(=O)c2cnc(Nc3ccc(N4CCN(C)CC4)cc3)nc2n1-c1cccc(C(C)(C)O)n1 [MK1775] | inactive: 0.144
CN(C)c1ccc(O)c2c1C[C@H]1C[C@H]3[C@H](N(C)C)C(O)=C(C(N)=O)C(=O)[C@@]3(O)C(O)=C1C2=O [Minocycline hydrochloride] + C=CCn1c(=O)c2cnc(Nc3ccc(N4CCN(C)CC4)cc3)nc2n1-c1cccc(C(C)(C)O)n1 [MK1775] | inactive: -0.0873
CCN1CCc2nc(N)oc2CC1 [B-HT 933 dihydrochloride] + C=CCn1c(=O)c2cnc(Nc3ccc(N4CCN(C)CC4)cc3)nc2n1-c1cccc(C(C)(C)O)n1 [MK1775] | inactive: 0.458
C[N+](C)(C)CCOC(=O)CCC(=O)OCC[N+](C)(C)C [Succinylcholine chloride] + C=CCn1c(=O)c2cnc(Nc3ccc(N4CCN(C)CC4)cc3)nc2n1-c1cccc(C(C)(C)O)n1 [MK1775] | inactive: -0.103
CN(Cc1cnc2nc(N)nc(N)c2n1)c1ccc(C(=O)N[C@@H](CCC(=O)O)C(=O)O)cc1 [(-)Amethopterin] + C=CCn1c(=O)c2cnc(Nc3ccc(N4CCN(C)CC4)cc3)nc2n1-c1cccc(C(C)(C)O)n1 [MK1775] | active: 3.07
CN(Cc1cnc2nc(N)nc(N)c2n1)c1ccc(C(=O)N[C@@H](CCC(=O)O)C(=O)O)cc1 [Methotrexate] + C=CCn1c(=O)c2cnc(Nc3ccc(N4CCN(C)CC4)cc3)nc2n1-c1cccc(C(C)(C)O)n1 [MK1775] | active: 5.98
CN(Cc1cnc2nc(N)nc(N)c2n1)c1ccc(C(=O)N[C@@H](CCC(=O)O)C(=O)O)cc1 [Abitrexate (Methotrexate)] + C=CCn1c(=O)c2cnc(Nc3ccc(N4CCN(C)CC4)cc3)nc2n1-c1cccc(C(C)(C)O)n1 [MK1775] | inactive: 1.99
C=CCn1c(=O)c2c(nc(-c3ccc(S(=O)(=O)O)cc3)n2C)n(C)c1=O [1-Allyl-3,7-dimethyl-8-p-sulfophenylxanthine] + C=CCn1c(=O)c2cnc(Nc3ccc(N4CCN(C)CC4)cc3)nc2n1-c1cccc(C(C)(C)O)n1 [MK1775] | inactive: 0.0935

SMILES | Z' of S-phase gammaH2AX difference (Z-score)
COc1cc2c(CCNC(C)=O)c[nH]c2cc1Cl [6-Chloromelatonin] + C=CCn1c(=O)c2cnc(Nc3ccc(N4CCN(C)CC4)cc3)nc2n1-c1cccc(C(C)(C)O)n1 [MK1775] | inactive: 0.264
Cc1ccc(S(=O)(=O)NC(=O)NN2CCCCCC2)cc1 [Tolazamide] + C=CCn1c(=O)c2cnc(Nc3ccc(N4CCN(C)CC4)cc3)nc2n1-c1cccc(C(C)(C)O)n1 [MK1775] | inactive: -1.81
CC(C)c1ccc(Cn2ccc3c4c(N)nc(NC5CC5)nc4ccc32)cc1 + C=CCn1c(=O)c2cnc(Nc3ccc(N4CCN(C)CC4)cc3)nc2n1-c1cccc(C(C)(C)O)n1 [MK1775] | inactive: -0.805
CCCCNc1c(C(=O)OCC)c(C)nc2c1cnn2CC [Tracazolate] + C=CCn1c(=O)c2cnc(Nc3ccc(N4CCN(C)CC4)cc3)nc2n1-c1cccc(C(C)(C)O)n1 [MK1775] | inactive: 0.185
CCCCCCCc1ccc(CCc2cccc(O)c2C(=O)O)cc1 + C=CCn1c(=O)c2cnc(Nc3ccc(N4CCN(C)CC4)cc3)nc2n1-c1cccc(C(C)(C)O)n1 [MK1775] | inactive: 0.301
CC(N)=NCCC[C@H](N)C(=O)O [L-N5-(1-Iminoethyl)ornithine hydrochloride] + C=CCn1c(=O)c2cnc(Nc3ccc(N4CCN(C)CC4)cc3)nc2n1-c1cccc(C(C)(C)O)n1 [MK1775] | inactive: -0.668
CC[N+](CC)(CC)CC(=O)Nc1c(C)cccc1C [Lidocaine N-ethyl bromide quaternary salt] + C=CCn1c(=O)c2cnc(Nc3ccc(N4CCN(C)CC4)cc3)nc2n1-c1cccc(C(C)(C)O)n1 [MK1775] | inactive: 0.296
COc1cc(-c2ccc(=O)[nH]n2)ccc1OC(F)F [Zardaverine] + C=CCn1c(=O)c2cnc(Nc3ccc(N4CCN(C)CC4)cc3)nc2n1-c1cccc(C(C)(C)O)n1 [MK1775] | inactive: -0.00186
Cc1ccc([N+](=O)[O-])cc1S(=O)(=O)N(C)/N=C/c1cnc2ccc(Br)cn12 + C=CCn1c(=O)c2cnc(Nc3ccc(N4CCN(C)CC4)cc3)nc2n1-c1cccc(C(C)(C)O)n1 [MK1775] | inactive: -1.25
O=C(Nc1cc(C(=O)Nc2ccc(S(=O)(=O)O)cc2S(=O)(=O)O)cc(C(=O)Nc2ccc(S(=O)(=O)O)cc2S(=O)(=O)O)c1)Nc1cc(C(=O)Nc2ccc(S(=O)(=O)O)cc2S(=O)(=O)O)cc(C(=O)Nc2ccc(S(=O)(=O)O)cc2S(=O)(=O)O)c1 [NF449 octasodium salt] + C=CCn1c(=O)c2cnc(Nc3ccc(N4CCN(C)CC4)cc3)nc2n1-c1cccc(C(C)(C)O)n1 [MK1775] | inactive: 0.378
CC1=C(/C=C/C(C)=C/C=C/C(C)=C\C(=O)O)C(C)(C)CCC1 [13-cis-retinoic acid] + C=CCn1c(=O)c2cnc(Nc3ccc(N4CCN(C)CC4)cc3)nc2n1-c1cccc(C(C)(C)O)n1 [MK1775] | inactive: 0.383
Nc1nc(OCc2ccccc2)c2nc[nH]c2n1 [O6-benzylguanine] + C=CCn1c(=O)c2cnc(Nc3ccc(N4CCN(C)CC4)cc3)nc2n1-c1cccc(C(C)(C)O)n1 [MK1775] | inactive: 0.608
CSc1ccc2c(c1)N(CCC1CCCCN1C)c1ccccc1S2 (stereo unspecified) [Thioridazine hydrochloride] + C=CCn1c(=O)c2cnc(Nc3ccc(N4CCN(C)CC4)cc3)nc2n1-c1cccc(C(C)(C)O)n1 [MK1775] | inactive: -0.516
CC(C)(Sc1ccc(CCN(CCCCC2CCCCC2)C(=O)NC2CCCCC2)cc1)C(=O)O + C=CCn1c(=O)c2cnc(Nc3ccc(N4CCN(C)CC4)cc3)nc2n1-c1cccc(C(C)(C)O)n1 [MK1775] | inactive: -0.644
NC1C=CC=C(C(=O)O)C1 (stereo unspecified) [Gabaculine hydrochloride] + C=CCn1c(=O)c2cnc(Nc3ccc(N4CCN(C)CC4)cc3)nc2n1-c1cccc(C(C)(C)O)n1 [MK1775] | inactive: 0.234
NCCNS(=O)(=O)c1cccc2cnccc12 [H-9 dihydrochloride] + C=CCn1c(=O)c2cnc(Nc3ccc(N4CCN(C)CC4)cc3)nc2n1-c1cccc(C(C)(C)O)n1 [MK1775] | inactive: -1.02
NC(N)=Nc1nc(CSCC/C(N)=N/S(N)(=O)=O)cs1 [Famotidine] + C=CCn1c(=O)c2cnc(Nc3ccc(N4CCN(C)CC4)cc3)nc2n1-c1cccc(C(C)(C)O)n1 [MK1775] | inactive: 0.857
COc1ccc(-c2ccc3c(N4CCOCC4)nc(N4C[C@@H](C)O[C@@H](C)C4)nc3n2)cc1CO + C=CCn1c(=O)c2cnc(Nc3ccc(N4CCN(C)CC4)cc3)nc2n1-c1cccc(C(C)(C)O)n1 [MK1775] | inactive: -0.307

Pulled one by one from above:
SMILES | Z' of S-phase gammaH2AX difference (Z-score)
CC(C)(Sc1ccc(CCN(CCCCC2CCCCC2)C(=O)NC2CCCCC2)cc1)C(=O)O + C=CCn1c(=O)c2cnc(Nc3ccc(N4CCN(C)CC4)cc3)nc2n1-c1cccc(C(C)(C)O)n1 [MK1775] | inactive: -0.644
CC(C)c1ccc(Cn2ccc3c4c(N)nc(NC5CC5)nc4ccc32)cc1 + C=CCn1c(=O)c2cnc(Nc3ccc(N4CCN(C)CC4)cc3)nc2n1-c1cccc(C(C)(C)O)n1 [MK1775] | inactive: -0.805
